Experimental data as given in publication PMC9117268, “HDLBP binds ER-targeted mRNAs by multivalent interactions to promote protein synthesis of transmembrane and secreted proteins”.
For at least one entry, the source does not settle the construct or the ends of the probe. A weaker result is weaker than the reference pair of the same experiment. At least one verdict was read from the data and is not stated in words by the source. Tags and fusion partners may be left off the protein sequences shown.

target: T1, HDLBP construct C (five C-terminal KH domains) (Homo sapiens) (UniProt Q00341); experiment: fluorescence anisotropy; conditions: 20 mM Tris pH 7.5, 60 mM KCl, 1 mM EDTA, 10% glycerol, 1 ng/ul tRNA, 1 ng/ul heparin, 0.4 U/ul RNasin, 200 ng/ul BSA; 10 nM RNA probe; 20 min on ice; recombinant protein; protein details: N-terminal GST; label: 5' fluorescein
T1 sequence (looked up, limits assumed): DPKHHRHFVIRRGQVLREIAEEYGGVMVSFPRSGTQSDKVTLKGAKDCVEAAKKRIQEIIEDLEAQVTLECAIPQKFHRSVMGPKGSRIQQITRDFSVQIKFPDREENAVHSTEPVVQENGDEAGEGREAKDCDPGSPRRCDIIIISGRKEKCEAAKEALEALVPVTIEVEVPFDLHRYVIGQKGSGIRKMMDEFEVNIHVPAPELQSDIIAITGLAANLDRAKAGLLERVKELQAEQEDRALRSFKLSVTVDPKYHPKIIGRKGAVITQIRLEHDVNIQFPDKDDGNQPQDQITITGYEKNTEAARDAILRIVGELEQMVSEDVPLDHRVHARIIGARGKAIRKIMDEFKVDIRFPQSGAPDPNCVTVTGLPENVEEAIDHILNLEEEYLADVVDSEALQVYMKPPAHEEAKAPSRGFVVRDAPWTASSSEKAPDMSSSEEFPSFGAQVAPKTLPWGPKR

Row | Sequence | binding result
1 | AUUCCCUUCCUUCAAUCACACUCAGUUUCCACC [TFRC_1] | binds more weakly

target: T2, HDLBP full-length (FL), Vigilin (Homo sapiens) (UniProt Q00341); experiment: fluorescence anisotropy; conditions: 20 mM Tris pH 7.5, 60 mM KCl, 1 mM EDTA, 10% glycerol, 1 ng/ul tRNA, 1 ng/ul heparin, 0.4 U/ul RNasin, 200 ng/ul BSA; 10 nM RNA probe; 20 min on ice; recombinant protein; label: 5' fluorescein
T2 sequence (looked up, limits assumed): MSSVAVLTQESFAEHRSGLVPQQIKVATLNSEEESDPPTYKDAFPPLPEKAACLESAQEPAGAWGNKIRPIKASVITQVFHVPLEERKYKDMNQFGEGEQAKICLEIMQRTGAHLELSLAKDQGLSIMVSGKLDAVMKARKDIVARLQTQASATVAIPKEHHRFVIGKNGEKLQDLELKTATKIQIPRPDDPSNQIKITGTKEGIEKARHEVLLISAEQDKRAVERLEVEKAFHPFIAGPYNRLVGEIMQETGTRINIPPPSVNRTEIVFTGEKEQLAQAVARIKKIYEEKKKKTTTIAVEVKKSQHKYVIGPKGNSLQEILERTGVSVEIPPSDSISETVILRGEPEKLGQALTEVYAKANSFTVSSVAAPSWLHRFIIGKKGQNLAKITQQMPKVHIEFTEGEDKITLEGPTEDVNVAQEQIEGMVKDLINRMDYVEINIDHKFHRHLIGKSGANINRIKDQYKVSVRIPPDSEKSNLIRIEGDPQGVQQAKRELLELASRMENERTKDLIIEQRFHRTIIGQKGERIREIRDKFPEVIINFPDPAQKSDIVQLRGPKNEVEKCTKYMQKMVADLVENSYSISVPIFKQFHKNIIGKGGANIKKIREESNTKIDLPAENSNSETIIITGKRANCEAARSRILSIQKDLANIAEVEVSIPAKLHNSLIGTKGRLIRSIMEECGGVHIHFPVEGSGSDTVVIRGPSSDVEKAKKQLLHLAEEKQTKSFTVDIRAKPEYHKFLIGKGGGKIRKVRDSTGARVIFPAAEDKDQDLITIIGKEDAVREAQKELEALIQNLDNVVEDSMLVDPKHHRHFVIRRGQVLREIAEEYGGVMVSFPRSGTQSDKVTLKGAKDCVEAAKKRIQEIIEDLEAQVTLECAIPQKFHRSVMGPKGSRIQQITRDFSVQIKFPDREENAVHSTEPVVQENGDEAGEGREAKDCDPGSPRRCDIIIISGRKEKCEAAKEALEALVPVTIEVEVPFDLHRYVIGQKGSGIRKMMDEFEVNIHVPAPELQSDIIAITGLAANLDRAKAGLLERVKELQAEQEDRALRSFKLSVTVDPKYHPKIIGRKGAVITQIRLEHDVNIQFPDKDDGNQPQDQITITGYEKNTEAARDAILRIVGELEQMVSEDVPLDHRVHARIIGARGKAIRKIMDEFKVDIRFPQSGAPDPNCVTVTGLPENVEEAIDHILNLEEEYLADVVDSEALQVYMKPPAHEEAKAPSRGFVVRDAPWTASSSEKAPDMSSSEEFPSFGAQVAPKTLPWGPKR

Row | Sequence | binding result
2 | CUUCUUCUUCUUCUUCUUCUUCUUCUUCUUCUU [CUU_oligomer] | binds
3 | CCUCCUCCUCCUCCUCCUCCUCCUCCUCCUCCU [CCU_oligomer] | binds
4 | CCCCCUCGAUGCUCUUAGCUGAGU [18S rRNA ES6 region] | binds more weakly
5 | AAUCCCAUCCAUCAAUCACACACAGUAUCCACC [TFRC_1_mut] | binds more weakly

target: T3, HDLBP construct B (KH5-9) (Homo sapiens) (UniProt Q00341); experiment: fluorescence anisotropy; conditions: 20 mM Tris pH 7.5, 60 mM KCl, 1 mM EDTA, 10% glycerol, 1 ng/ul tRNA, 1 ng/ul heparin, 0.4 U/ul RNasin, 200 ng/ul BSA; 10 nM RNA probe; 20 min on ice; recombinant protein; protein details: N-terminal GST; label: 5' FAM
T3 sequence (looked up, limits assumed): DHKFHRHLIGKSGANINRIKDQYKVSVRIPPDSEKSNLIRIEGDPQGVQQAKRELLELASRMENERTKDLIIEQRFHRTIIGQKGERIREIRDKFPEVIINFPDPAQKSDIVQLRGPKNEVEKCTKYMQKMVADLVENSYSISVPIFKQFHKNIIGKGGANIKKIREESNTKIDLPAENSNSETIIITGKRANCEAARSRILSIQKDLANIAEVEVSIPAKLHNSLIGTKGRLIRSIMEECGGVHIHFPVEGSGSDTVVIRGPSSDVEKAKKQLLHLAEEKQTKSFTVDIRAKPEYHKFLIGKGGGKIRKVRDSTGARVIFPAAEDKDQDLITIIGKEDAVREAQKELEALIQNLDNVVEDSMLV

Row | Sequence | binding result
6 | AAAAAAUCUUAAAAAUCUUAAAAAUCUUAAAAAA [H43 (3x UCUU)] | binds
7 | AAAAAACUUCAAAAAAAAAAAAAACUUCAAAAAA [H40 (2x CUUC)] | binds more weakly
8 | AAAAAAUCUUAAAAAAAAAAAAAAUCUUAAAAAA [H42 (2x UCUU)] | binds more weakly
9 | AAAAACUUCAAAAAACUUCAAAAAACUUCAAAAA [H44 (3x CUUC, shifted spacing)] | binds
10 | AAAAAACUUCAAAAACUUCAAAAACUUCAAAAAA [H41 (3x CUUC)] | binds

same assay, conditions: 20 mM Tris pH 7.5, 60 mM KCl, 1 mM EDTA, 10% glycerol, 1 ng/ul tRNA, 1 ng/ul heparin, 0.4 U/ul RNasin, 200 ng/ul BSA; 10 nM RNA probe; 20 min on ice; recombinant protein; protein details: N-terminal GST; label: 5' fluorescein

Row | Sequence | binding result
11 | AUUCCCUUCCUUCAAUCACACUCAGUUUCCACC [TFRC_1] | binds
12 | CCCCCUCGAUGCUCUUAGCUGAGU [18S rRNA ES6 region] | binds more weakly
